{
  "source": "patent US10036011B2",
  "about": "“Scavenger compounds for improved sequencing-by-synthesis” (QIAGEN Waltham, Inc., priority 2016, dated 2018)",
  "key": {"[1]": {"experiment": "Bead loss in flow cells during sequencing runs (reliability)", "settings": "for bead loss (share of flow cells): other runs (data not shown): gallic acid 11 of 31 flow cells, IPA 0 of 44 flow cells"}, "[2]": {"test_system": "clonally amplified gene panel beads (NA12878 barcoded library, 101X gene panel)", "experiment": "Sequencing-by-synthesis performance with scavenger in cleave reagent (IPA versus gallic acid, system and application KPIs)", "settings": "gallic acid as benchmark cleave additive"}, "[3]": {"settings": "comparative statistics: IPA across 90 flow cells, gallic acid across 30 flow cells"}},
  "data": [
    {"compound": "O=C(O)CCc1c[nH]c2ccccc12", "note": "[IPA, indole-3-propionic acid]", "values": [
      {"measurement": "flow cells showing bead loss", "setting": "[1]; GDP4 testing, fifteen (15) flow cells", "value": "no flow cells showed any bead loss"},
      {"measurement": "bead loss rate", "setting": "[1]; IPA guardbanding, one (1) of sixteen (16) flow cells", "value": 6, "unit": "%"},
      {"measurement": "bead loss rate", "setting": "[1]; [3]", "value": 0, "unit": "%"},
      {"measurement": "bead loss (share of flow cells)", "setting": "[1]", "value": 0, "unit": "%"},
      {"measurement": "flow cells with bead loss", "setting": "[1]; other runs, out of fifty (50) flow cells", "value": 0}
    ]},
    {"compound": "O=C(O)c1cc(O)c(O)c(O)c1", "note": "[gallic acid, reference compound]", "values": [
      {"measurement": "filtered trimmed sequence output", "setting": "[2]", "value": 1, "unit": "Gb"},
      {"measurement": "bead loss in affected flow cell", "setting": "[1]; GDP4 testing, one (1) out of seven (7) flow cells", "value": "~30", "unit": "%"},
      {"measurement": "bead loss rate", "setting": "[1]; [3]", "value": 30, "unit": "%"},
      {"measurement": "bead loss (share of flow cells)", "setting": "[1]", "value": "~35", "unit": "%"},
      {"measurement": "failure rate", "setting": "[1]; preliminary gallic acid assays", "value": "10-15%"}
    ]}
  ]
}
